Test results taken from article PMC12648288, “Drastic Impact of Donor Substituents on Xanthenes in the PDT of Glioblastoma” (JACS Au, 2025).
“And” between values parts separate entries of the source, which are not always exact repeats. Equal entries are not always repeated.

Experiments:
[1] = test system: U87MG cells; experiment: Cellular uptake assay; type: cell-based, human; settings: 100 μM, 1 h
[2] = test system: U87MG cells; experiment: Subcellular co-localization by confocal microscopy (PCC); type: cell-based, human; settings: 2.5 μM; for PCC, lysosomal colocalization: across time points 0.5–4 h
[3] = test system: U118MG cells; experiment: Cellular uptake assay; type: cell-based, human; settings: 100 μM, 1 h
[4] = test system: L929 cells; experiment: Cellular uptake assay; type: cell-based, mouse; settings: L929, 100 μM, 1 h
[5] = Singlet oxygen quantum yield with ADMDA trap
[6] = DHR123 oxidation, cell-free superoxide (type I ROS) detection; settings: PBS (pH 7.4), 660 nm LED, 100 s
[7] = test system: U118MG glioblastoma cells; experiment: MTT cell viability, dark and PDT; type: cell-based, human; settings: for In vitro TI = IC50,dark,healthycells/IC50,light,cancercells / SI = IC50,light,healthycells/IC50,light,cancercells: L929 vs U118MG; for PI, phototoxicity index = IC50,dark/IC50,light: U118MG
Experimental: (§1) The time- and concentration-dependent effects of NSeAze and NSeMorph on glioblastoma cells were determined by using the MTT assay (Figure S7). In this regard, U118MG and U87MG cells were administered with NSeMorph (0.5–20 μM) and NSeAze (0.01–2.5 μM) for 24 h to evaluate their dark toxicity. Before PDT application, both cell lines were treated as indicated for 1 h and then exposed to 660 nm LED light for 2 and 1 h, respectively (Figure ). Following overnight incubation, the resulting cell viability was calculated and compared to the effect of both compounds in the absence of irradiation. […]
(§2) Cell Culture and Treatment
(§3) Human glioblastoma cell lines (U118MG and U87MG) and healthy mouse fibroblast cells (L929) were cultured in DMEM high glucose medium supplemented with 10% fetal bovine serum (FBS), 2 mM glutamine, 1% penicillin/stremptomycin, 0.5% amphotericin B, and incubated at 37 °C with 5% CO2. NSeMorph and NSeAze were dissolved in cell culture-grade DMSO and further diluted in complete medium for experimental use. For phototoxicity analysis, cells were administered with NSeMorph […]
(§4) mW/cm2) irradiation for 2 h in NSeMorph-treated groups and 1 h in NSeAze-treated groups. Then, each group were incubated for further 24 h in the dark to allow for resting. On the other hand, the dark toxicity of both agents was detected following the same treatment under identical conditions without LED irradiation. To determine the involvement of distinct ROS types, cells were pretreated for 1 h with selective […]
(§5) scavengers prior to photosensitizer exposure. The scavengers included NAC (5 mM), NaN3 (5 mM), histidine (5 mM), Tiron (100 µM), mannitol (25 mM) and Trolox (25 µM).
(§6) Cell viability was then assessed following irradiation. For index calculations, all cells were treated with the increasing concentrations (0.5-500 µM) of NSeMorph and NSeAze for 24 h. Final DMSO concentrations were kept below 0.5% (v/v) in all […]
(§7) PI=IC50, dark /IC50, light
(§8) SI= IC50, light, healthy cells/IC50, light, cancer cells
(§9) TI= IC50, dark, healthy cells/IC50, light, cancer cells
(§10) The viability of cells treated with NSeMorph and NSeAze was determined with MTT (3-[4,5-dimethylthiazol-2-yl]-2,5-diphenyltetrazoliumbromide) assay. Following the administration of both compounds, the medium was discarded and cells were treated with fresh media containing MTT (0.5 mg/ml) for 2-4 h at 37 °C. Formazan crystals were then solubilized in 10% SDS in 0.01 N HCl, and absorbance was measured at 490 and 570 nm wavelength using microplate reader (Multiskan Sky, Thermo Scientific). Data were normalized to vehicle (DMSO)-treated controls. IC50 values were calculated using nonlinear regression analysis in GraphPad Prism 9.02 (GraphPad Software Inc.). All experiments were performed in technical and biological replicates

[8] = test system: U87MG glioblastoma cells; experiment: MTT cell viability, dark and PDT; type: cell-based, human; settings: for In vitro TI = IC50,dark,healthycells/IC50,light,cancercells / SI = IC50,light,healthycells/IC50,light,cancercells: L929 vs U87MG; for PI, phototoxicity index = IC50,dark/IC50,light: U87MG
Experimental: as §1, §2, §3, §4, §5, §6, §7, §8, §9, §10

[9] = test system: U118MG cells; experiment: Subcellular co-localization by confocal microscopy (PCC); type: cell-based, human; settings: 2.5 μM; for PCC, lysosomal colocalization: across time points 0.5–4 h

SMILES	Cellular uptake (%) [1]	Peak PCC, colocalization with mitochondria ([2]; 1–2 h)	PCC, lysosomal colocalization [2]	Cellular uptake (%) [3]	Cellular uptake (%) [4] [%]	φΔ (%) singlet oxygen quantum yield [5] [%]	Increase of oxidized DHR123 emission upon irradiation [6] [fold]	In vitro TI = IC50,dark,healthycells/IC50,light,cancercells [7]	SI = IC50,light,healthycells/IC50,light,cancercells [7]	PI, phototoxicity index = IC50,dark/IC50,light [7]	In vitro TI = IC50,dark,healthycells/IC50,light,cancercells [8]	SI = IC50,light,healthycells/IC50,light,cancercells [8]	PI, phototoxicity index = IC50,dark/IC50,light [8]	Peak PCC, colocalization with mitochondria ([9]; 1–2 h)	PCC, lysosomal colocalization [9]	PCC, colocalization with mitochondria ([2]; early phase (0.5–1 h))	PCC, colocalization with mitochondria ([9]; 4 h)	PCC, colocalization with mitochondria ([9]; early phase (0.5–1 h))
c1cc2nc3ccc(=[N+]4CCC4)cc-3[se]c2cc1N1CCC1 [NSeAze]	34–38%	0.84–0.89	0.79–0.84	34–38%	~22	31	27	281.1 and 281	0.98	> 245 and 131	287.6 and 288	0.99	> 270 and 144.7 and 145	0.84–0.89	0.79–0.84			
c1cc2nc3ccc(=[N+]4CCOCC4)cc-3[se]c2cc1N1CCOCC1 [NSeMorph]	< 2%		0.75 to 0.82	< 2%	< 2	75	13	> 62.3 and >62	> 2.49	> 46.7 and 46.7 and 47	>32	> 1.26	> 31		0.75 to 0.82	0.78	0.69	0.81
